# In US20230173047A1, “CITRULLINATED NUCLEOPHOSMIN PEPTIDES AS CANCER VACCINES” (SCANCELL LIMITED, priority 2020, published 2023):
# At least one peptide structure holds a part that was inferred or is arguable (an end, a ring closure or a residue). Where a SMILES comes first, the peptide text is derived from it. [ ]: non-standard residue; d: D form. Cit = NC(=O)NCCC[C@H](N)C(=O)O
# Key:
# [1] = tested on: PBMCs from lung and ovarian cancer patients (CD4 T cells); assay: CFSE proliferation assay, PBMCs of cancer patients cultured with peptide; assay type: cell-based, human
# [2] = tested on: T cell response in HLA-DR4 and HHDII/DP4 transgenic mice; assay: Screening of citrullinated NPM peptides for T cell (IFNy) responses in HLA-DR4 and HHDII/DP4 transgenic mice; assay type: in vivo, mouse
# Protocol: (§1) HLA-DR4 mice (Taconic, USA) and the HHDII/HLA-DP4 transgenic strain of mouse as described in patent WO2013/017545 A1 (EMMA repository, France) were used, aged between 8 and 12 weeks, and cared for by the staff at Nottingham Trent University. All work was carried out under a Home Office project licence. Peptides were dissolved in 10% dimethylformamide to 1 mg/mL and then emulsified (a series of dilutions) with the adjuvant CpG and MPLA 6 µg/mouse of each (Invivogen, UK). Peptides (25 µg/mouse) were injected subcutaneously at the base of the tail.
# ELISpot assays were performed using murine IFNy capture and detection reagents according to the manufacturer’s instructions (Mabtech, Sweden). In brief, anti-IFNʏ antibody was coated onto wells of a 96-well Immobilin-P plate. […] After incubation, captured IFNy was detected by a biotinylated anti-IFNʏ antibody and developed with a streptavidin alkaline phosphatase and chromogenic substrate. […] Spots were analysed and counted using an automated plate reader (Cellular Technologies Ltd). […]
# (§2) Screening was performed to identify potential citrullinated NPM epitopes that could generate an immune response in mice. […] Mice were culled 7 days after the third immunisation, the immune response to each peptide within the immunising pool were assessed by ex vivo IFNy ELISpot (FIG. 2). […]
# [3] = tested on: splenocytes of HLA-DR4 transgenic mice; assay: Ex vivo IFNy ELISpot on splenocytes after peptide immunisation, HLA-DR4 mice; assay type: in vivo, mouse
# Protocol: as §1
# ELISpot assays were performed using murine IFNy capture and detection reagents according to the manufacturer’s instructions (Mabtech, Sweden). In brief, anti-IFNʏ antibody was coated onto wells of a 96-well Immobilin-P plate. […] After incubation, captured IFNy was detected by a biotinylated anti-IFNʏ antibody and developed with a streptavidin alkaline phosphatase and chromogenic substrate. […] Spots were analysed and counted using an automated plate reader (Cellular Technologies Ltd).
# as §2
# [4] = tested on: PBMCs from healthy donors (CD4 T cells); assay: CFSE proliferation assay and functional markers, PBMCs of healthy donors cultured with peptide; assay type: cell-based, human; details: for Donors with CD4 peptide specific proliferating (CFSElow) population: ten healthy donors, nine HLA-DP4 positive
# [5] = tested on: splenocytes of HHDII/DP4 transgenic mice; assay: Ex vivo IFNy ELISpot on splenocytes after peptide immunisation, HHDII/DP4 mice; assay type: in vivo, mouse; details: for IFNy responses in mice immunised with the peptide: HHDII/DP4 mice, 25 µg s.c. weekly x3, ex vivo ELISpot
# Protocol: as §1
# ELISpot assays were performed using murine IFNy capture and detection reagents according to the manufacturer’s instructions (Mabtech, Sweden). In brief, anti-IFNʏ antibody was coated onto wells of a 96-well Immobilin-P plate. Synthetic peptides (at a variety of concentrations) and 5×10^5 per well splenocytes were added to the wells of the plate in triplicate. LPS at 5 µg/mL was used as a positive control. Peptide pulsed target cells were added where relevant at 5×10^4 per well in triplicate and plates incubated for 40 hours at 37° C. After incubation, captured IFNy was detected by a biotinylated anti-IFNʏ antibody and developed with a streptavidin alkaline phosphatase and chromogenic substrate. […] For blocking studies, anti-CD4 blocking antibody (RPA-T4) and anti-CD8 blocking antibody (2.43) from Bioxcell were used at 20 µg/mL. Spots were analysed and counted using an automated plate reader (Cellular Technologies Ltd).
# Screening was performed to identify potential citrullinated NPM epitopes that could generate an immune response in mice. Mice were immunised with pools of 4-6 human citrullinated peptides. […] Each pool was administered subcutaneously as a single immunisation given once a week for three weeks. Each peptide pool contained 25 µg of each peptide in combination with CpG/MPLA as an adjuvant. Mice were culled 7 days after the third immunisation, the immune response to each peptide within the immunising pool were assessed by ex vivo IFNy ELISpot (FIG. 2). We have previously shown that citrullinated peptides can induce responses in the transgenic DR4 mouse strain. Given that different mouse strains have different MHC repertoires, two different transgenic strains (DR4 and DP4) were used for screening.
# The core epitope was confirmed by immunising mice once weekly for three weeks with 25 µg of the NPM 261-280 cit or 266-285 cit peptide. HHDII/DP4 mice were immunised with the individual peptides whereas HLA-DR4 mice were immunised with a combination of NPM 261-280 cit and 266-285 cit, all given with CpG/MPLA. Mice were culled 7 days after the third immunisation.
# To determine if the immune response to the NPM 266-285 peptide is specific to the citrullinated peptide and not the wild type (wt) version, mice were immunised with NPM 266-285 cit or NPM 266-285 wt peptides. HHDII/DP4 mice received 25 µg peptide (NPM 266-285 cit or NPM 266-285 wt) subcutaneously once a week for three weeks. Mice were culled 7 days after the third immunisation, the immune response to each peptide was assessed by ex vivo ELISpot (FIGS. 4A and 4B). […] In contrast, strong IFNy responses were detected in mice immunised with NPM 266-285 cit, these responses were significant when compared to the response to the NPM 266-285 wt peptide (p=0.0002) and the control (p=<0.0001). This confirmed that the immune response generated in HHDII/DP4 mice is in response to the citrullinated version of the NPM 266-285 peptide.
# [6] = tested on: B16F1HHDIIMHCIIKO tumour cells; assay: Tumour challenge with MHC-II knock-out B16 tumour followed by peptide immunisation; assay type: in vivo; details: day 28; control median 1027 mm^3; p=0.2050
# [7] = tested on: B16F1cDP4PAD2KO tumour cells; assay: Tumour challenge with PAD2 knock-out B16 tumour followed by peptide immunisation; assay type: in vivo, mouse; details: day 28; control median 190.5 mm^3; p=0.2050
# [8] = day 10, seven responding donors
compound,measurement,setting,value
"CC[C@H](C)[C@H](NC(=O)[C@H](C)NC(=O)[C@H](CCC(=O)O)NC(=O)[C@H](CCC(N)=O)NC(=O)[C@H](CC(=O)O)NC(=O)[C@@H](NC(=O)[C@H](CCSC)NC(=O)[C@H](CCCNC(N)=O)NC(=O)[C@H](Cc1ccccc1)NC(=O)[C@H](CS)NC(=O)[C@H](CC(N)=O)NC(=O)[C@H](CCCCN)NC(=O)[C@@H](NC(=O)[C@H](Cc1ccc(O)cc1)NC(=O)[C@H](CC(N)=O)NC(=O)[C@@H](NC(=O)[C@H](Cc1ccccc1)NC(=O)[C@H](CCCCN)NC(=O)[C@H](C)N)[C@@H](C)CC)C(C)C)[C@@H](C)O)C(=O)N[C@@H](CCC(N)=O)C(=O)O [NPM 266-285 cit, AKFINYVKNCF-cit-MTDQEAIQ] (H-AKFINYVKNCF[Cit]MTDQEAIQ-OH)",Patients with CD4 peptide specific proliferating (CFSElow) population,"[1]; lung cancer patients, day 7",four out of eleven
same,Patients with CD4 peptide specific proliferating (CFSElow) population,"[1]; lung cancer patients, day 10",three out of eleven
same,Patients with CD4 peptide specific proliferating (CFSElow) population,"[1]; ovarian cancer patients, day 7",one ovarian cancer patient out of nine
same,Patients with CD4 peptide specific proliferating (CFSElow) population,"[1]; ovarian cancer patients, day 10",one
same,Frequency of IFNy responses,[2]; HHDII/DP4 and HLA-DR4 mice,high frequency IFNy responses
same,T cell response,"[2]; citrullinated NPM peptides, HLA-DR4 and HHDII/DP4 transgenic mice, IFNy ELISpot",Yes
same,IFNy immune response to peptide,"[3]; HLA-DR4 mice immunised with peptide pools, 25 µg each + CpG/MPLA, weekly x3, vs media only",significant IFNy responses
same,IFNy response to peptide,"[3]; core epitope study, HLA-DR4 mice immunised with combination of NPM 261-280 cit and 266-285 cit + CpG/MPLA",Significant IFNʏ responses
same,Percentage of proliferating CD4 T cells,"[4]; CD45RO depleted PBMCs, day 11, two healthy donors",23.6%
same,Donors with CD4 peptide specific proliferating (CFSElow) population,[4]; day 7,four out of ten
same,Donors whose proliferating CD4 specific T cells expressed CD134,[4]; [8],six out of seven
same,Donors whose proliferating CD4 specific T cells expressed IFNy,[4]; [8],six out of seven
same,Donors whose proliferating CD4 specific T cells expressed granzyme B,[4]; [8],all seven
same,Donors with CD4 peptide specific proliferating (CFSElow) population,[4]; day 10,seven out of ten
same,CD4 peptide specific proliferating (CFSElow) population detected,"[4]; day 11, CD45RO depleted vs non-depleted PBMCs",could be detected in both the CD45RO depleted and non-depleted populations
same,Detection of response to peptide,[5]; 2 days post immunisation,could not be detected
same,Detection of response to peptide,[5]; 12 days after immunisation,could be detected
same,IFNy immune response to peptide,"[5]; HHDII/DP4 mice immunised with peptide pools, 25 µg each + CpG/MPLA, weekly x3, vs media only",significant immune responses
same,IFNy responses in mice immunised with the peptide,[5],strong
same,IFNy response to peptide,"[5]; core epitope study, HHDII/DP4 mice immunised with individual peptide 25 µg weekly x3 + CpG/MPLA",Significant IFNʏ responses
same,"Tumour volume, median",[6],904.3 mm^3
same,"Tumour volume, median",[7],696.6 mm^3
"CC[C@H](C)[C@H](NC(=O)[C@H](C)NC(=O)[C@H](CCC(=O)O)NC(=O)[C@H](CCC(N)=O)NC(=O)[C@H](CC(=O)O)NC(=O)[C@@H](NC(=O)[C@H](CCSC)NC(=O)[C@H](CCCNC(=N)N)NC(=O)[C@H](Cc1ccccc1)NC(=O)[C@H](CS)NC(=O)[C@H](CC(N)=O)NC(=O)[C@H](CCCCN)NC(=O)[C@@H](NC(=O)[C@H](Cc1ccc(O)cc1)NC(=O)[C@H](CC(N)=O)NC(=O)[C@@H](NC(=O)[C@H](Cc1ccccc1)NC(=O)[C@H](CCCCN)NC(=O)[C@H](C)N)[C@@H](C)CC)C(C)C)[C@@H](C)O)C(=O)N[C@@H](CCC(N)=O)C(=O)O [NPM 266-285 wt, reference compound] (H-AKFINYVKNCFRMTDQEAIQ-OH)",IFNy responses in mice immunised with the peptide,[5],Low to moderate
